Test results: PubChem BioAssay AID720537 (National Center for Advancing Translational Sciences (NCATS), 2013)
This list holds what a sample rich in hits left over. Inconclusive results are not listed. Activity calls are given as the source filed them. Calls follow the shape of the dose curve; as a rule, active = well fitted inhibition curve with a large enough effect; inconclusive = small, poorly fitted or top-dose-only effect; inactive = no such curve, though single readings can be large or run the other way.

Experiment: qHTS for Inhibitors of TGF-b: Hit Validation in HepG2 Cells using COP promoter;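 also: 0% = TGF-beta stimulated DMSO wells and -100% = unstimulated cell wells; nearly all actives have a fitted effect of over 70% in size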
Details: HepG2 COP-GFP TGF-b reporter, GFP fluorescence, 18 h, cells stimulated by added recombinant TGF-beta; at 46.1 µM (top of the series)
Excerpt: TGF-b is a main component in the TGF-b signaling pathway which plays diverse roles in cellular and development pathways. TGF-b is the mediated by the transcription factors Smads. Although the Smad-dependent pathway is the primary canonical TGF-b signaling node, TGF-b1 can also activate alternative signaling pathways, including those involving MAPK (ERK, JNK and p38). This interaction may mediate or enhance Smad-dependent responses, or can exert Smad-independent effects. The complexity of this signaling cascade allows the TGF-b superfamily to perform unique, overlapping or redundant functions. […] We aim to identify Smad3-small molecule antagonists using a quantitative high throughput screening (qHTS) approach. […]
Suspensions of trypsinized HEPG2 COP-GFP cells were dispensed into white, tissue culture-treated, solid 1536-well plates at 5uL/well (1000 cells/well final concentration) in DMEM medium supplemented with 1% FBS. […] The plates were measured on an Acumen eX3 Explorer plate reader for GFP fluorescence (ex488/em500-530). GFP values were calculated by determining the mean GFP fluorescence of individual cells, and compiling these values for each well to determine a total well GFP signal. The %Activity was determined from the corrected fluorescence values. […] Concentration-response curves were fitted to the signals arising from the resulting fluorescence. […]
With `COc1cc2c(c(OC)c1OC)-c1ccc(OC)c(=O)cc1C(N)CC2` (stereo unspecified) the activity, negative = inhibition was inactive: -22%.
